# Measurements taken from the supplement of paper PMC8728848.
# The list shows a part of the results.
# B1: BabA (Helicobacter pylori), O52269_HELPY (protein)
# chain: AEDDGFYMSAGYQIGEAAQMVKNTKGIQELSDNYENLSNLLTRYSTLNTLIKLSADPSAVNAARENLGASAKNLIGDTKNSPAYQAVLLAINAAVGFWNVVGYVTQCGGNANGQKSTSSTTIFNNEPGYRSTSITCSLNGHMPGYYGPMSIENFKKLNEAYQILQTALKNGLPALKENNGTVNVTYSYTCSGEGNDNCSLQTTGVTNQNNGTKTETQTIDGKSVTTTISSKVVDSQ
# How the values were obtained:
# Test in all cases: glycan array binding signal (z-score within array); higher = stronger binding
# Conditions in all cases: glycan notation: IUPAC condensed, linker removed
# [1] = target: Man(a1-6)Man
# How it was run: (§1)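 The binding signal is a Z-score computed within each array. Data were drawn from 3228 arrays in the Consortium for Functional Glycomics database, restricted to those with a known protein sequence. Scores were averaged over arrays of the same protein sequence at different concentrations or buffers, and over linkers, and negative values can be taken as non-binding.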
# [2] = target: Man(b1-4)GlcNAc
# How it was run: as §1
# [3] = target: MurNAc(b1-4)GlcNAc
# How it was run: as §1
# [4] = target: Neu5Ac(a2-3)Gal
# How it was run: as §1
# [5] = target: Neu5Ac(a2-3)Gal(b1-3)GalNAc
# How it was run: as §1
# [6] = target: Neu5Ac(a2-3)Gal(b1-3)GalNAc(b1-3)Gal(a1-4)Gal(b1-4)Glc
# How it was run: as §1
# [7] = target: Neu5Ac(a2-3)Gal(b1-3)GalNAc(b1-3)Gal(b1-4)GlcNAc
# How it was run: as §1
# [8] = target: Neu5Ac(a2-3)Gal(b1-3)GalNAc(b1-4)Gal(b1-4)Glc
# How it was run: as §1
# [9] = target: Neu5Ac(a2-3)Gal(b1-3)GalNAc(b1-4)[Neu5Ac(a2-3)]Gal(b1-4)Glc
# How it was run: as §1
# [10] = target: Neu5Ac(a2-3)Gal(b1-3)GalNAc(b1-4)[Neu5Ac(a2-8)Neu5Ac(a2-3)]Gal(b1-4)Glc
# How it was run: as §1
# [11] = target: Neu5Ac(a2-3)Gal(b1-3)GalNAc6S
# How it was run: as §1
# [12] = target: Neu5Ac(a2-3)Gal(b1-3)GlcNAc
# How it was run: as §1
# [13] = target: Neu5Ac(a2-3)Gal(b1-3)GlcNAc(b1-2)Man
# How it was run: as §1
# [14] = target: Neu5Ac(a2-3)Gal(b1-3)GlcNAc(b1-2)Man(a1-3)[GlcNAc(b1-4)][Neu5Ac(a2-3)Gal(b1-3)GlcNAc(b1-2)Man(a1-6)]Man(b1-4)GlcNAc(b1-4)GlcNAc
# How it was run: as §1
# [15] = target: Neu5Ac(a2-3)Gal(b1-3)GlcNAc(b1-2)Man(a1-3)[Neu5Ac(a2-3)Gal(b1-3)GlcNAc(b1-2)Man(a1-6)]Man(b1-4)GlcNAc(b1-4)GlcNAc
# How it was run: as §1
# [16] = target: Neu5Ac(a2-3)Gal(b1-3)GlcNAc(b1-2)[Neu5Ac(a2-3)Gal(b1-3)GlcNAc(b1-4)]Man(a1-6)[Neu5Ac(a2-3)Gal(b1-3)GlcNAc(b1-2)Man(a1-3)]Man(b1-4)GlcNAc(b1-4)GlcNAc
# How it was run: as §1
# [17] = target: Neu5Ac(a2-3)Gal(b1-3)GlcNAc(b1-3)Gal(b1-3)GlcNAc
# How it was run: as §1
# [18] = target: Neu5Ac(a2-3)Gal(b1-3)GlcNAc(b1-3)Gal(b1-4)GlcNAc
# How it was run: as §1
# [19] = target: Neu5Ac(a2-3)Gal(b1-3)GlcNAc(b1-3)GalNAc
# How it was run: as §1
# [20] = target: Neu5Ac(a2-3)Gal(b1-3)GlcNAc(b1-6)GalNAc
# How it was run: as §1
# [21] = target: Neu5Ac(a2-3)Gal(b1-3)GlcNAc6S
# How it was run: as §1
# [22] = target: Neu5Ac(a2-3)Gal(b1-3)[Fuc(a1-4)]GlcNAc
# How it was run: as §1
# [23] = target: Neu5Ac(a2-3)Gal(b1-3)[Fuc(a1-4)]GlcNAc(b1-3)Gal(b1-3)[Fuc(a1-4)]GlcNAc
# How it was run: as §1
# [24] = target: Neu5Ac(a2-3)Gal(b1-3)[Fuc(a1-4)]GlcNAc(b1-3)Gal(b1-4)[Fuc(a1-3)]GlcNAc
# How it was run: as §1
# [25] = target: Neu5Ac(a2-3)Gal(b1-3)[GlcNAc(b1-6)]GalNAc
# How it was run: as §1
# [26] = target: Neu5Ac(a2-3)Gal(b1-3)[Neu5Ac(a2-3)Gal(b1-4)]GlcNAc
# How it was run: as §1
# [27] = target: Neu5Ac(a2-3)Gal(b1-3)[Neu5Ac(a2-6)]GalNAc
# How it was run: as §1
# [28] = target: Neu5Ac(a2-3)Gal(b1-3)[Neu5Ac(a2-6)]GlcNAc(b1-3)[Fuc(a1-3)[Gal(b1-4)]GlcNAc(b1-6)]Gal(b1-4)Glc
# How it was run: as §1
# [29] = target: Neu5Ac(a2-3)Gal(b1-3)]Neu5Ac(a2-3)Gal(b1-4)]GlcNAc
# How it was run: as §1
# [30] = target: Neu5Ac(a2-3)Gal(b1-4)Glc
# How it was run: as §1
# [31] = target: Neu5Ac(a2-3)Gal(b1-4)GlcNAc
# How it was run: as §1
# [32] = target: Neu5Ac(a2-3)Gal(b1-4)GlcNAc(b1-2)Man
# How it was run: as §1
# [33] = target: Neu5Ac(a2-3)Gal(b1-4)GlcNAc(b1-2)Man(a1-3)[GlcNAc(b1-2)Man(b1-4)GlcNAc(b1-2)Man(a1-6)]Man(b1-4)GlcNAc(b1-4)GlcNAc
# How it was run: as §1
# [34] = target: Neu5Ac(a2-3)Gal(b1-4)GlcNAc(b1-2)Man(a1-3)[GlcNAc(b1-4)][Neu5Ac(a2-3)Gal(b1-4)GlcNAc(b1-2)Man(a1-6)]Man(b1-4)GlcNAc(b1-4)GlcNAc
# How it was run: as §1
# [35] = target: Neu5Ac(a2-3)Gal(b1-4)GlcNAc(b1-2)Man(a1-3)[Neu5Ac(a2-3)Gal(b1-4)GlcNAc(b1-2)Man(a1-6)]Man(b1-4)GlcNAc(b1-4)GlcNAc
# How it was run: as §1
# [36] = target: Neu5Ac(a2-3)Gal(b1-4)GlcNAc(b1-2)Man(a1-3)[Neu5Ac(a2-3)Gal(b1-4)GlcNAc(b1-2)Man(a1-6)]Man(b1-4)GlcNAc(b1-4)[Fuc(a1-6)]GlcNAc
# How it was run: as §1
# [37] = target: Neu5Ac(a2-3)Gal(b1-4)GlcNAc(b1-2)Man(a1-3)[Neu5Ac(a2-6)Gal(b1-4)GlcNAc(b1-2)Man(a1-6)]Man(b1-4)GlcNAc(b1-4)GlcNAc
# How it was run: as §1
# [38] = target: Neu5Ac(a2-3)Gal(b1-4)GlcNAc(b1-2)[Neu5Ac(a2-3)Gal(b1-4)GlcNAc(b1-4)]Man(a1-3)[GlcNAc(b1-4)][Neu5Ac(a2-3)Gal(b1-4)GlcNAc(b1-2)[Neu5Ac(a2-3)Gal(b1-4)GlcNAc(b1-6)]Man(a1-6)]Man(b1-4)GlcNAc(b1-4)GlcNAc
# How it was run: as §1
# [39] = target: Neu5Ac(a2-3)Gal(b1-4)GlcNAc(b1-2)[Neu5Ac(a2-3)Gal(b1-4)GlcNAc(b1-4)]Man(a1-3)[GlcNAc(b1-4)][Neu5Ac(a2-3)Gal(b1-4)GlcNAc(b1-4)Man(a1-6)]Man(b1-4)GlcNAc(b1-4)GlcNAc
# How it was run: as §1
# [40] = target: Neu5Ac(a2-3)Gal(b1-4)GlcNAc(b1-2)[Neu5Ac(a2-3)Gal(b1-4)GlcNAc(b1-6)]Man(a1-6)[Neu5Ac(a2-3)Gal(b1-4)GlcNAc(b1-2)Man(a1-3)][GlcNAc(b1-4)]Man(b1-4)GlcNAc(b1-4)GlcNAc
# How it was run: as §1
# [41] = target: Neu5Ac(a2-3)Gal(b1-4)GlcNAc(b1-3)Gal
# How it was run: as §1
# [42] = target: Neu5Ac(a2-3)Gal(b1-4)GlcNAc(b1-3)Gal(b1-3)GlcNAc
# How it was run: as §1
# [43] = target: Neu5Ac(a2-3)Gal(b1-4)GlcNAc(b1-3)Gal(b1-4)GlcNAc
# How it was run: as §1
# [44] = target: Neu5Ac(a2-3)Gal(b1-4)GlcNAc(b1-3)Gal(b1-4)GlcNAc(b1-2)Man(a1-3)[Neu5Ac(a2-3)Gal(b1-4)GlcNAc(b1-3)Gal(b1-4)GlcNAc(b1-2)Man(a1-6)]Man(b1-4)GlcNAc(b1-4)GlcNAc
# How it was run: as §1
# [45] = target: Neu5Ac(a2-3)Gal(b1-4)GlcNAc(b1-3)Gal(b1-4)GlcNAc(b1-3)Gal(b1-4)GlcNAc
# How it was run: as §1
binder,measurement,setting,value
B1,glycan array binding signal (z-score),[1],0.859
same,glycan array binding signal (z-score),[2],0.169
same,glycan array binding signal (z-score),[3],-0.046
same,glycan array binding signal (z-score),[4],0.143
same,glycan array binding signal (z-score),[5],0.087
same,glycan array binding signal (z-score),[6],-0.606
same,glycan array binding signal (z-score),[7],-0.872
same,glycan array binding signal (z-score),[8],-0.537
same,glycan array binding signal (z-score),[9],-0.458
same,glycan array binding signal (z-score),[10],-0.528
same,glycan array binding signal (z-score),[11],0.26
same,glycan array binding signal (z-score),[12],0.201
same,glycan array binding signal (z-score),[13],-0.7
same,glycan array binding signal (z-score),[14],-0.582
same,glycan array binding signal (z-score),[15],0.917
same,glycan array binding signal (z-score),[16],0.217
same,glycan array binding signal (z-score),[17],-0.829
same,glycan array binding signal (z-score),[18],-0.773
same,glycan array binding signal (z-score),[19],-0.5
same,glycan array binding signal (z-score),[20],-0.191
same,glycan array binding signal (z-score),[21],1.11
same,glycan array binding signal (z-score),[22],-0.469
same,glycan array binding signal (z-score),[23],-0.004
same,glycan array binding signal (z-score),[24],0.749
same,glycan array binding signal (z-score),[25],0.008
same,glycan array binding signal (z-score),[26],-0.816
same,glycan array binding signal (z-score),[27],0.266
same,glycan array binding signal (z-score),[28],-0.092
same,glycan array binding signal (z-score),[29],0.508
same,glycan array binding signal (z-score),[30],0.807
same,glycan array binding signal (z-score),[31],-0.136
same,glycan array binding signal (z-score),[32],0.699
same,glycan array binding signal (z-score),[33],-1.52
same,glycan array binding signal (z-score),[34],-0.637
same,glycan array binding signal (z-score),[35],-0.555
same,glycan array binding signal (z-score),[36],0.726
same,glycan array binding signal (z-score),[37],0.431
same,glycan array binding signal (z-score),[38],-0.646
same,glycan array binding signal (z-score),[39],-0.646
same,glycan array binding signal (z-score),[40],0.617
same,glycan array binding signal (z-score),[41],-0.5
same,glycan array binding signal (z-score),[42],-1.01
same,glycan array binding signal (z-score),[43],-0.291
same,glycan array binding signal (z-score),[44],0.517
same,glycan array binding signal (z-score),[45],-1.16

# Exported as tab-separated lines: part of the list above
binder	measurement	setting	value
B1	glycan array binding signal (z-score)	[25]	0.008
same	glycan array binding signal (z-score)	[26]	-0.816
same	glycan array binding signal (z-score)	[27]	0.266
same	glycan array binding signal (z-score)	[28]	-0.092
same	glycan array binding signal (z-score)	[29]	0.508
same	glycan array binding signal (z-score)	[30]	0.807
same	glycan array binding signal (z-score)	[31]	-0.136
same	glycan array binding signal (z-score)	[32]	0.699
